# At least one peptide structure holds a part that was inferred or is arguable (an end, a ring closure or a residue). Peptide text beside a SMILES is read from it.
# Legend:
# [1] = system: subjects with bilateral patello-femoral knee osteoarthritis; conditions: cited from earlier work
# defects in human molar = conditions: administered in the defects in human molar; Lazarov 2006; cited from earlier work
# dental defect = conditions: Six 2007; cited from earlier work
# neonatal mouse calvaria = conditions: Hayashibara 2004; cited from earlier work
# alveolar bone = conditions: in vivo; cited from earlier work
# [2] = system: subjects with bilateral patello-femoral knee osteoarthritis; assay: Same clinical study, data re-analysis with stricter MRI image qualification standard (Example 2); type: in vivo, human
# [3] = 79 requalified subjects, 6 or 12 month, or both
# [4] = 79 requalified subjects, 12 months
# [5] = Month 6, Entire TF Cartilage, Index Knees, n 78
# [6] = Month 6, Femoral Condyle Cartilage, Index Knees, n 78
# [7] = Month 6, Lateral TF Cartilage, Index Knees, n 77
# [8] = Month 6, Medial TF Cartilage, Index Knees, n 78
# [9] = Month 12, Entire TF Cartilage, Index Knees, n 78
# [10] = Month 12, Femoral Condyle Cartilage, Index Knees, n 78
# [11] = Month 12, Lateral TF Cartilage, Index Knees, n 77
# [12] = Month 12, Medial TF Cartilage, Index Knees, n 78
# [13] = Month 12, Pain Frequency, Index Knees, N 79
compound,measurement,setting,value
CC[C@H](C)[C@H](NC(=O)[C@H](CC(=O)O)NC(=O)[C@H](CC(N)=O)NC(=O)[C@H](CC(=O)O)NC(=O)CNC(=O)[C@H](CCCNC(=N)N)NC(=O)[C@H](CCC(=O)O)NC(=O)[C@H](CCC(N)=O)NC(=O)[C@H](CC(C)C)NC(=O)[C@H](CC(=O)O)NC(=O)[C@@H](N)[C@@H](C)O)C(=O)N[C@@H](CO)C(=O)N1CCC[C@H]1C(=O)N[C@@H](Cc1ccccc1)C(=O)N[C@@H](CO)C(=O)NCC(=O)N[C@@H](CC(=O)O)C(=O)NCC(=O)N[C@@H](CCC(N)=O)C(=O)N1CCC[C@H]1C(=O)N[C@@H](Cc1ccccc1)C(=O)N[C@@H](CCCCN)C(=O)N[C@@H](CC(=O)O)C(N)=O [TPX-100] (H-TDLQERGDNDISPFSGDGQPFKD-NH2; N-terminus assumed),"Knee function and other clinical outcomes, TPX-100-treated knees compared to placebo-treated knees",[1]; McGuire 2017,statistically significant and clinically meaningful improvements
same,Tibiofemoral (TF) cartilage thickness in TPX-100-treated responder knees,"[1]; baseline to 12 months, McGuire 2018",significantly increased
same,Dentin formation,defects in human molar,reparative dentin formation
same,Dentin formation,dental defect,promote dentin formation
same,Bone formation activity,neonatal mouse calvaria,thickening of cultured neonatal mouse calvaria
same,"Alveolar bone formation, drug vs. placebo-exposed groups",alveolar bone,did not show a difference
same,3D bone shape in patella of pain frequency responders,[2]; 12 months,eventually no change
same,"Femur bone shape change (bone shape score), Index Knees as compared to Control Knees","[2]; 79 requalified subjects, 6 and 12 months",statistically significant (p<0.05) delay
same,"KOOS ADL, Index knees as compared to Control knees",[2]; [3],clinically meaningful and statistically significant (p<0.05) improvements
same,"KOOS Knee-related QOL, Index Knees as compared to Control Knees",[2]; [3],clinically meaningful and statistically significant (p<0.05) improvements
same,"WOMAC Function, Index knees as compared to Control knees",[2]; [3],clinically meaningful and statistically significant (p<0.05) improvements
same,"KOOS Pain subscale, Index Knees as compared to Control Knees",[2]; [4],clinically meaningful improvement in Index Knees with a trend towards statistical significance (p<0.09)
same,"Pain Frequency, Index Knees as compared to Control Knees",[2]; [4],significantly improved (p<0.05)
same,"Pain bending knee fully, Index Knees as compared to Control Knees",[2]; [4],significantly improved (p<0.05)
same,"Pain going up or down stairs, Index Knees as compared to Control Knees",[2]; [4],significantly improved (p<0.05)
same,"Pearson Correlation, Femur Bone Shape Change vs. Tibiofemoral Cartilage Thickness Increase/Stabilization",[2]; [5],0.193
same,"Spearman Correlation, Femur Bone Shape Change vs. Tibiofemoral Cartilage Thickness Increase/Stabilization",[2]; [5],0.162
same,"Pearson Correlation, Femur Bone Shape Change vs. Tibiofemoral Cartilage Thickness Increase/Stabilization",[2]; [6],0.206
same,"Spearman Correlation, Femur Bone Shape Change vs. Tibiofemoral Cartilage Thickness Increase/Stabilization",[2]; [6],0.215
same,"Pearson Correlation, Femur Bone Shape Change vs. Tibiofemoral Cartilage Thickness Increase/Stabilization",[2]; [7],0.089
same,"Spearman Correlation, Femur Bone Shape Change vs. Tibiofemoral Cartilage Thickness Increase/Stabilization",[2]; [7],0.109
same,"Pearson Correlation, Femur Bone Shape Change vs. Tibiofemoral Cartilage Thickness Increase/Stabilization",[2]; [8],0.212
same,"Spearman Correlation, Femur Bone Shape Change vs. Tibiofemoral Cartilage Thickness Increase/Stabilization",[2]; [8],0.196
same,"Pearson Correlation, Femur Bone Shape Change vs. Tibiofemoral Cartilage Thickness Increase/Stabilization",[2]; [9],0.296
same,"Spearman Correlation, Femur Bone Shape Change vs. Tibiofemoral Cartilage Thickness Increase/Stabilization",[2]; [9],0.340
same,"Pearson Correlation, Femur Bone Shape Change vs. Tibiofemoral Cartilage Thickness Increase/Stabilization",[2]; [10],0.302
same,"Spearman Correlation, Femur Bone Shape Change vs. Tibiofemoral Cartilage Thickness Increase/Stabilization",[2]; [10],0.341
same,"Pearson Correlation, Femur Bone Shape Change vs. Tibiofemoral Cartilage Thickness Increase/Stabilization",[2]; [11],0.181
same,"Spearman Correlation, Femur Bone Shape Change vs. Tibiofemoral Cartilage Thickness Increase/Stabilization",[2]; [11],0.188
same,"Pearson Correlation, Femur Bone Shape Change vs. Tibiofemoral Cartilage Thickness Increase/Stabilization",[2]; [12],0.320
same,"Spearman Correlation, Femur Bone Shape Change vs. Tibiofemoral Cartilage Thickness Increase/Stabilization",[2]; [12],0.371
same,"Pearson Correlation, Patella Periarticular Bone Shape Change vs. Pain",[2]; [13],0.347
same,"Spearman Correlation, Patella Periarticular Bone Shape Change vs. Pain",[2]; [13],0.411
same,Pain frequency in responders,[2]; baseline to 12 months,decreased from daily pain at baseline to semi-monthly pain at 12 months
